For at least one entry, the source does not settle the construct or the ends of the probe. Tags and fusion partners may be left off the protein sequences shown.
Biological target: T1, PRDM16 wild type (Mus musculus) (UniProt A2A935)
T1 sequence (limits assumed): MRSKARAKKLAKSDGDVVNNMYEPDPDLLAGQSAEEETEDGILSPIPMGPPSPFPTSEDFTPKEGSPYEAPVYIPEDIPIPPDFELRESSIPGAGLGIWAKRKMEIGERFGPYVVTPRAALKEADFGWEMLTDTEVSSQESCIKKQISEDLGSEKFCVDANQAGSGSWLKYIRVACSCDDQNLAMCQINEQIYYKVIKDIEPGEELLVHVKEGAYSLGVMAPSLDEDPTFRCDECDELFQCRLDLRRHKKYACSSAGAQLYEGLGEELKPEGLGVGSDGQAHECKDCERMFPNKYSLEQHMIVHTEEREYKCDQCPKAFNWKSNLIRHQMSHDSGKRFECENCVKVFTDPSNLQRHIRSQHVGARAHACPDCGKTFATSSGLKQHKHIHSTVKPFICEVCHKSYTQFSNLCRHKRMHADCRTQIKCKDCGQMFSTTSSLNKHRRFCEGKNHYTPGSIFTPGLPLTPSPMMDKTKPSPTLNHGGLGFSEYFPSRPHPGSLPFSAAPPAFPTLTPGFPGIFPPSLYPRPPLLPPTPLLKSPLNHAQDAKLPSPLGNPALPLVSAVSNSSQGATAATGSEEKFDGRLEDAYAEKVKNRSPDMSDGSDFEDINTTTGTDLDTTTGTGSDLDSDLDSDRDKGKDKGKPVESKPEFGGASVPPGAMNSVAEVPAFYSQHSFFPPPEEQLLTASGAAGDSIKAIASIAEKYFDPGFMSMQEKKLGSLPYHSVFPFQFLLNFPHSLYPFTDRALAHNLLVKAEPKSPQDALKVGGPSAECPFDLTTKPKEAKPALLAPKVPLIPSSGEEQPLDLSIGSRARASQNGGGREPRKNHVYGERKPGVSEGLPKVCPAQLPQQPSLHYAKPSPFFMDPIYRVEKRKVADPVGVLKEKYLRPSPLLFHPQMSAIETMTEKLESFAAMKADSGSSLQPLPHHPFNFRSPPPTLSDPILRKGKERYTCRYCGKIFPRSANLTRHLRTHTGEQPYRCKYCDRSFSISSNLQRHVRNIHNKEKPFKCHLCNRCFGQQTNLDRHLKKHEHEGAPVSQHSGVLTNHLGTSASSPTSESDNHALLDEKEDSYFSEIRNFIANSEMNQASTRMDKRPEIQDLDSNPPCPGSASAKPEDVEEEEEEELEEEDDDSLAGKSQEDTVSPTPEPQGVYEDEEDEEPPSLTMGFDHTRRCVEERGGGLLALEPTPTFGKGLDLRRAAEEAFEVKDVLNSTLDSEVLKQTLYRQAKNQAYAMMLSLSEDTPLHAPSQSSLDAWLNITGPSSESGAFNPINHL
Assay: EMSA
Settings: 10 mM Tris-HCl pH 7.5, 50 mM NaCl, 1 mM MgCl2, poly(dI-dC); 5 fmol probe, unlabeled probe competition with 50 or 500 fmol; protein translated in vitro; label: 32P end label

By UniProt entry, the sequences of proteins in these tests, tags left out. Where a name states a change or a piece, a line headed by the entry shows the natural chain unless it says otherwise.
UniProt A2A935: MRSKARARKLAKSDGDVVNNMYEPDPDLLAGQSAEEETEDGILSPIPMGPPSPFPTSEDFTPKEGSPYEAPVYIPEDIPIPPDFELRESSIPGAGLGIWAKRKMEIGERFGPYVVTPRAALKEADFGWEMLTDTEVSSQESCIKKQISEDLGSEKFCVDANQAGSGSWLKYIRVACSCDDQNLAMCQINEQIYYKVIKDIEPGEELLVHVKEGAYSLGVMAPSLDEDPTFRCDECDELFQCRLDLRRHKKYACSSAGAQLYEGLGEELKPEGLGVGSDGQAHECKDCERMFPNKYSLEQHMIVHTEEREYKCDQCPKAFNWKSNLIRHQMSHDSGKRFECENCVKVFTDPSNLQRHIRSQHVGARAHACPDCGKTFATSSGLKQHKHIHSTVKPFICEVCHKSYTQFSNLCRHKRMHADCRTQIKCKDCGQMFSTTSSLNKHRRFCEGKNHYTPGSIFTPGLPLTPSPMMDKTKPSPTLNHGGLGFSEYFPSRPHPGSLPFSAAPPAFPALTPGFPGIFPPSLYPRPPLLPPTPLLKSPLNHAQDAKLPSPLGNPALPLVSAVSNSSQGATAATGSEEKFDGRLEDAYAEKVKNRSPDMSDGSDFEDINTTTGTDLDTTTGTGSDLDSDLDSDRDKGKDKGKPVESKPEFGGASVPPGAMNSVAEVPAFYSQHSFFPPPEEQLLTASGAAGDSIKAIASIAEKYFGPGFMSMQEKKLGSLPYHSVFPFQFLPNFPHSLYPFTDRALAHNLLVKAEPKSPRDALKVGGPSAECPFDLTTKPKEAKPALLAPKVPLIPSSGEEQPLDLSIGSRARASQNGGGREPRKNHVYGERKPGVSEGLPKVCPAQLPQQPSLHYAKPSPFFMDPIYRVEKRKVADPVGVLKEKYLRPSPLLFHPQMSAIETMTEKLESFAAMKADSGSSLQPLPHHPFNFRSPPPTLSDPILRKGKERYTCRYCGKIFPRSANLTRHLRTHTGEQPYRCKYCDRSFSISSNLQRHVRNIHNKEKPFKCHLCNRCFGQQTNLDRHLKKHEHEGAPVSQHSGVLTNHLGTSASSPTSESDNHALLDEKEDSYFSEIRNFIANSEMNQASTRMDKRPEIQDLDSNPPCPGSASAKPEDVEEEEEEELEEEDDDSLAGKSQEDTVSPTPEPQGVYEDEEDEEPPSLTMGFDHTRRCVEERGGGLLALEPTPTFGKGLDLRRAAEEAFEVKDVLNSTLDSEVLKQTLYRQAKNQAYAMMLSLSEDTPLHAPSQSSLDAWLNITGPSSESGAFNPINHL

“GATCCGACAAGATAAGATAAGGATCTATAAGAAGATGAGGTATG (double strand) [PRDM16 consensus binding site EMSA probe]”: binds.
